# From the supplement of paper PMC3334620
# The full ranking holds about 33,000 sequences; the median of “E-score (-0.5 to 0.5)” is about -0.015, and the highest 2% start at about 0.3. The list shows a part of the results.
# Molecular target: T1, Abf1 (UniProt P14164)
# T1 sequence: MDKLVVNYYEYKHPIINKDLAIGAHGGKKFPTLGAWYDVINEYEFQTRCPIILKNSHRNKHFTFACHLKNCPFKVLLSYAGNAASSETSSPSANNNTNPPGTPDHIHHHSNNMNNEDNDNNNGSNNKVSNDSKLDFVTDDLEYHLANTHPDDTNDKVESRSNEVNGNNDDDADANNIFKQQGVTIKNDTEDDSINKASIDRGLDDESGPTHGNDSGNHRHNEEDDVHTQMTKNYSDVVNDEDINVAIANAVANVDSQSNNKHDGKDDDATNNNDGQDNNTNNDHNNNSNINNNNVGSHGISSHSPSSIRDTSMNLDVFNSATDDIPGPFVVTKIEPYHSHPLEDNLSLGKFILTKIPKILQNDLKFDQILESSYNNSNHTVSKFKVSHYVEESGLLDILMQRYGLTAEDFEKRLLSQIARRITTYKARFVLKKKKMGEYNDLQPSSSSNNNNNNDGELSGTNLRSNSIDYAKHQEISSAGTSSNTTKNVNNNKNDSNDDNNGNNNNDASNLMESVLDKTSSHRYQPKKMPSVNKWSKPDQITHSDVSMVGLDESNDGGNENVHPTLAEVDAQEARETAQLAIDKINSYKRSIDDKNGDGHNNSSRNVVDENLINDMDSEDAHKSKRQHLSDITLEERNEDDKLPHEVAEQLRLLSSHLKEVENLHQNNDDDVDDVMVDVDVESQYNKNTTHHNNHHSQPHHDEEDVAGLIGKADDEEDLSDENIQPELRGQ
# Assay: PBM E-score (8-mer binding enrichment) (E-score (-0.5 to 0.5)); higher = stronger / more preferred TF binding
# Details: protein concentration: 200 nM; construct: GST-full length
# Method: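 Universal 'all 10-mer' protein binding microarrays (Agilent AMADID 015681) probed with GST-tagged S. cerevisiae TFs (full-length or DBD) made by in vitro transcription/translation (PURExpress), about 100-200 nM. Bound TF was detected with fluorescent anti-GST. Each ungapped 8-mer (which stands for itself and its reverse complement) is scored by the PBM enrichment score (E-score), a modified Wilcoxon-Mann-Whitney statistic from -0.5 to +0.5, computed with the Universal PBM Analysis Suite. Scale: above 0.35 generally sequence-specific binding.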
row,Sequence,PBM E-score
1,ACCTCGAG,0.0887
2,CACCGCGG,0.043
3,ACCTCACA,-0.0895
4,CGTTGTCC,0.0331
5,ACACACCC,-0.00584
6,TGGATAAA,0.216
7,ACGTATCC,0.0297
8,CCCTGGAA,-0.181
9,AGCACGGA,0.157
10,TCACAAAA,-0.0313
11,CTTGTGTC,-0.0564
12,CCCGGGAC,-0.222
13,CTATGGCC,-0.139
14,TCCATAGA,-0.149
15,GTACACTA,0.0726
16,CCTGCCGA,-0.188
17,ATGCCAAG,-0.0925
18,CCAACTCG,-0.0747
19,ACGGGTTA,0.0231
20,CCCGAGGC,-0.0862
21,AGCTATCC,-0.246
22,TAGTGTGA,0.137
23,AGTCGCGA,0.208
24,AAGTTACA,-0.0815
25,CTACACGC,-0.0965

# Some of the entries so far, bar-delimited:
row | Sequence | PBM E-score
8 | CCCTGGAA | -0.181
9 | AGCACGGA | 0.157
10 | TCACAAAA | -0.0313
11 | CTTGTGTC | -0.0564

# The list continues:

row,Sequence,PBM E-score
1,ACAAATGG,-0.0304
2,CTGTACTA,0.105
3,AGAAGACC,0.00869
4,CACATGGC,-0.18
5,GATTAAAA,0.17
6,CCGCGTGC,-0.0127
7,CATACCAC,0.0524
8,AGGTTCAT,-0.278
9,CGTAACTC,0.105
10,ATCAATCC,0.116
11,ACGAGGTA,0.154
12,AAATATTA,0.217
13,CCGTCGAA,0.201
14,ATAGTCCA,0.0269
15,AGCATCAG,-0.055
16,CCCCATAG,-0.13
17,GTGGACAC,-0.0874
18,CCGATTGC,0.0434
19,CATATTTC,0.11
20,CAACAATG,0.103
21,CGTTCCCA,0.0728
22,GCGCGAGC,-0.274
23,CCACCGAG,-0.127
24,CTTGAAAG,0.0291
25,CTATAGGC,-0.102

row,Sequence,PBM E-score
1,AGCTCAAG,-0.275
2,ACTTGTAT,-0.121
3,GGGCAACC,-0.245
4,ACACTATG,-0.0995
5,CCGCAAAC,0.134
6,TACCCAAA,-0.0749
7,GGGGTGAC,0.134
8,CTGAGTTC,-0.0373
9,CTCACTCC,-0.0715
10,CTAAGTCC,-0.154
11,GCACGCGA,0.0602
12,GAACCCGA,0.0767
13,CAGAACGC,-0.0801
14,AAAAGAAA,0.0689
15,GAATGAAC,-0.112
16,AGGTAACA,0.127
17,GCAATCCC,-0.0733
18,AAGCAGCG,0.0835
19,ACAGTCGA,-0.145
20,GCACTACC,0.0942
21,CTGTTCTC,-0.138
22,CGCGAACC,-0.0738
23,ATTCCTGC,-0.0386
24,CGACAAAG,0.0397
25,AAGTTTTC,0.029

row,Sequence,PBM E-score
1,GCAAACAC,0.00058
2,CAAATCTA,-0.00274
3,GAGTCTCC,-0.129
4,CCCTCGGC,-0.192
5,GTGTCTAA,0.111
6,ACGACTTG,0.219
7,AAAGTCCT,-0.161
8,ACGCAAAG,0.0496
9,AACGTGGA,0.0105
10,CGACGATA,0.373
11,AAATGCAA,-0.0101
12,AGACGAAG,0.135
13,GTCCTATA,-0.0768
14,CATGAAGA,0.132
15,AAGGGAGT,-0.126
16,ATAAGACA,0.126
17,TGGGAACA,0.0263
18,CAACTTCA,-0.112
19,AAAGGGCA,0.00013
20,AGTTCTGA,-0.0393
21,CGCGTATC,0.0488
22,ATTCCGGG,-0.095
23,AGGTAATC,-0.0547
24,AGCCCACG,0.0424
25,ACAACAGC,-0.0578

# Looked up above.
# PBM E-score, AAAGTCCT reads -0.161
# PBM E-score, CGACGATA reads 0.373

# More records follow.

row,Sequence,PBM E-score
1,CTGCTTAC,-0.198
2,ACGAGTCG,0.165
3,CGAAGGAG,0.0413
4,CGTAACAA,0.248
5,ATAAACTA,0.162
6,TTGACCAA,-0.049
7,ACAACCTA,-0.0161
8,ACATGGCC,-0.0287
9,ACAACCGT,-0.0373
10,ACGTCCGC,0.127
11,ACTCGAAA,0.124
12,TACATCTA,-0.0572
13,GAGAGACC,-0.131
14,CGCTTTAA,0.0203
15,AATGTCAC,0.416
16,GTCTCTGA,0.194
17,ACATAGCT,-0.211
18,ATTCTGTC,-0.116
19,CCCGGTCA,-0.0268
20,GCACATGA,-0.107
21,AGAAAACC,-0.127
22,GGAATACC,-0.0774
23,GCTATTAA,0.034
24,GTTGTCAA,0.0388
25,ATATTGAC,-0.122

# Some of the entries so far, as tab-separated lines:
row	Sequence	PBM E-score
10	CGACGATA	0.373
6	TTGACCAA	-0.049

# Following part:

row,Sequence,PBM E-score
1,AAGCCCCT,-0.196
2,ACCATTAG,-0.125
3,GTAATACA,0.152
4,TCACTTAA,0.219
5,ACTACGGC,0.102
6,CGACGTTA,0.238
7,ACTTGACA,-0.0769
8,CTCTTTAC,-0.0883
9,CAAGCGGC,0.0225
10,GACGCGGC,0.0089
11,ACCACCCA,0.0341
12,ATGCTCCG,-0.094
13,AGACTTAC,-0.19
14,AATTTGGT,0.0854
15,AAGAGTGC,-0.156
16,ACAAGTAT,0.0682
17,TCCCGAAA,0.0516
18,AGTGGTAT,0.0315
19,AATCGCCA,0.00273
20,TCAAGGAA,0.0823
21,AATGTTTC,-0.17
22,ACACAACA,0.0864
23,ACAGGTAA,-0.00331
24,AATGGATG,0.0613
25,GTTCTGGA,-0.00129

row,Sequence,PBM E-score
1,ATCACCCG,0.293
2,CGATTGGC,-0.0866
3,GATATAAC,0.307
4,GTGGGGGA,-0.276
5,CTTCCCAA,-0.0429
6,ATTATTTG,0.154
7,ACCTTTCG,0.072
8,CTCCAGCC,-0.0707
9,CTCGTCCC,0.194
10,TACGAGTA,0.257
11,GAGGCTGA,-0.235
12,ATATCTCA,0.173
13,GGCGAGTA,-0.121
14,GCCTAAGA,-0.0403
15,GAGTCCGA,-0.00238
16,GTGACTAA,0.327
17,ACCCACGA,0.287
18,ATCCTTAA,0.0133
19,GGAGTCTA,-0.154
20,TCTCCTCA,-0.0245
21,AAGTAAGC,0.046
22,CCGAGGTC,-0.0891
